# Library screen at single concentrations

Amino acid sequences for entries named in this document (tags omitted).
UniProt I6X8D2, whole entry: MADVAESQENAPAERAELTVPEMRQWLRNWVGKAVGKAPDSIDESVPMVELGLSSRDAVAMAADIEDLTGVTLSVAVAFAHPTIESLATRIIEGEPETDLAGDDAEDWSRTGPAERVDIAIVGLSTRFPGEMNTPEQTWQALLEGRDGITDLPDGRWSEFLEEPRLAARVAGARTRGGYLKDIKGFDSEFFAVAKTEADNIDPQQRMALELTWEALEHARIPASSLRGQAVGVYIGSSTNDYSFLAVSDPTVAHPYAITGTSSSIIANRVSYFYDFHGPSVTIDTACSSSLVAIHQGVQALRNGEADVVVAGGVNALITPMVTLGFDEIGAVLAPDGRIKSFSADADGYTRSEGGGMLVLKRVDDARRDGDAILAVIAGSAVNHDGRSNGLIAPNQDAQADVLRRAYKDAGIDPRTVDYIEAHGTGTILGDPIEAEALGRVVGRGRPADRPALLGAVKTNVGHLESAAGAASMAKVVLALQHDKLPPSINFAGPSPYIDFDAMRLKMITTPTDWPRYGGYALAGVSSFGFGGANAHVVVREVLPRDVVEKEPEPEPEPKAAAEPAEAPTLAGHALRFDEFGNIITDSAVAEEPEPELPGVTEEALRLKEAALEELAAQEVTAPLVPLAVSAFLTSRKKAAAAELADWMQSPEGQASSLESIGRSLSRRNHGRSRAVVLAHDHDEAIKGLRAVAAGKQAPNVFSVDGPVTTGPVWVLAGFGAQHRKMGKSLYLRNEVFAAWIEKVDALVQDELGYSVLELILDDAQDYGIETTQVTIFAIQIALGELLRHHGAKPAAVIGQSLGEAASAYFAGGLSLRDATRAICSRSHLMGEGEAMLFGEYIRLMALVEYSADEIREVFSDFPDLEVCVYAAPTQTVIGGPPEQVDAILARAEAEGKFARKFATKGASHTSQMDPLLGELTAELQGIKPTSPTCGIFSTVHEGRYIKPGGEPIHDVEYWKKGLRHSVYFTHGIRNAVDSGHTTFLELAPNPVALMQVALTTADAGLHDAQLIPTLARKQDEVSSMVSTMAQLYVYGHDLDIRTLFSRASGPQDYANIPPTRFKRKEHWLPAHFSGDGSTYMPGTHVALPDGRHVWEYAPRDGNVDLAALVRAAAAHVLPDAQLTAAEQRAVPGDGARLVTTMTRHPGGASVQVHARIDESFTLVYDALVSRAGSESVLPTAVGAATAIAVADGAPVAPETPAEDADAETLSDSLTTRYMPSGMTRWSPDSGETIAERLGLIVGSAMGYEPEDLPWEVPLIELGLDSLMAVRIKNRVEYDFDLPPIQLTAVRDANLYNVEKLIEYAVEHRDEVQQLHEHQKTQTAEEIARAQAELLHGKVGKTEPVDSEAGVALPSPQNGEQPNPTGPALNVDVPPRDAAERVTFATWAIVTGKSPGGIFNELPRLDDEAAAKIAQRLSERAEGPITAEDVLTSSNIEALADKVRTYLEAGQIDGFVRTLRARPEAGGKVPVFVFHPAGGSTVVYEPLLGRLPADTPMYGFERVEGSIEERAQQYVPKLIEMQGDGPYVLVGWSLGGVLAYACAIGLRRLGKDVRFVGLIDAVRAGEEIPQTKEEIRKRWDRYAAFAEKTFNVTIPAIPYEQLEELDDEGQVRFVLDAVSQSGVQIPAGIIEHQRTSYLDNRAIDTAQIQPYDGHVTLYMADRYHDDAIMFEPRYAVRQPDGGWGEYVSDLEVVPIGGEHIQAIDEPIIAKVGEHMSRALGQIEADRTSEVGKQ

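Enzyme assay of the thioesterase domain of polyketide synthase 13; the read-out is not stated. Target: Polyketide synthase Pks13, Mycobacterium tuberculosis (UniProt I6X8D2). Concentration: 30 µM. The record gives no direction; the compounds picked for IC50 retests had high values, so higher reads as stronger inhibition. About 67,000 compounds were tested under these conditions; 0.46% (about 300) showed 50% or more at least once.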

Results are given as percent effect. The controls that fix the scale are not given in the record; negative values are as filed. This is an unselected part of the compounds tested.

Compound: CC(Cn1ccnc1)NCc1nncn1C1CCCCC1 (stereo not shown)
effect: -11.27

Compound: O=C1CC[C@H]2CN(c3ncc(F)cn3)CC[C@H]2N1CCc1c[nH]cn1
effect: -33.53

Compound: O=C(NC1CCCN(CCCc2ccccc2)C1)c1ccncc1 (stereo not shown)
effect: -4.944

Compound: Cn1ccnc1C(O)(CCNCc1ccc(Cl)o1)C(F)(F)F (stereo not shown)
effect: -25.76

Compound: c1cncc(COCC2CC[C@H]3[C@H](CCN3CC3CCOCC3)O2)c1 (stereo partly shown)
effect: -33.51

Compound: CCOC(=O)N1CC(C)=C(C)CN1C(=O)Nc1ccc(Cl)c(Cl)c1
effect: 11.03

Compound: COc1ccc(C[C@H]2CN(C3CCOCC3)CC[C@@H]2OCC2CC2)cc1
effect: -27.87

Compound: CNc1ncc(CN(C)C(=O)c2cccc(-n3cnnc3)c2)cn1
effect: -1.448

Compound: O=C1NCCN1CCNc1cc(-c2ccccc2)nc2ccnn12
effect: -35.64

Compound: CC(C)C1CN(C(=O)c2ccc(N3CCCC3)nc2)CCS1 (stereo not shown)
effect: -21.16

Compound: CCc1[nH]ncc1C(=O)N1CCCN(Cc2cnn(C)c2)CC1
effect: -13.03

Compound: COc1ccccc1CCN1CCCC(CN(C)Cc2ccc(C)o2)C1 (stereo not shown)
effect: 12.65

Compound: Cn1ccnc1CN1CCCN(Cc2noc(C3CC3)n2)CC1
effect: -8.337

Compound: CC(NC(=O)c1ccoc1)C(=O)N(C)Cc1ccc(O)cc1 (stereo not shown)
effect: -8.569

Compound: O=C(O)c1ccc(CCNC(=O)C2(c3ccccc3)CC2)cc1
effect: 5.919

Compound: CC(C)NC(=O)c1cc(Br)cc(S(=O)(=O)N2CCOCC2)c1F
effect: 0.5962

Compound: Cc1nc(S(=O)(=O)CCn2cccn2)n(CC2CCCO2)c1C (stereo not shown)
effect: -22.42

Compound: Cc1n[nH]c(C)c1CN(C)C(C(=O)O)c1c(F)cccc1OC(C)C (stereo not shown)
effect: -8.001

Compound: CC(NCCNS(=O)(=O)c1cccc(Cl)c1)C1CCOCC1 (stereo not shown)
effect: -30.29

Compound: Cc1cc(C(C)(O)CNC(=O)c2ccc(Br)o2)c(C)o1 (stereo not shown)
effect: -29.89

Compound: O=C(c1cccc(F)c1)N1CCc2ncc(Cn3cccn3)n2CC1
effect: -31.3

Compound: CNc1nccnc1C1CCN(C(C)C)CC1
effect: -21.98

Compound: Cc1nn2c(NC(=O)CSc3nccn3C)csc2nc1=O
effect: -1.696

Compound: CC(C(=O)NCc1ccnc(N2CCN(C)CC2)c1)n1cccn1 (stereo not shown)
effect: -6.723

Compound: CCCS(=O)(=O)N1CCC2(CC1)COCCN(C(C)=O)C2
effect: -26.66

Compound: CC(=O)NC[C@H]1C[C@@H]2CCN1C[C@@H]2c1cc(-c2cccs2)nn1C
effect: -25.87

Compound: COc1cc(CN2CCC(COCc3ccccc3)CC2)cc(OC)c1
effect: 6.984

Compound: CN(Cc1cccc(Cl)c1)C(=O)Cn1nc(-c2ccc(F)cc2)oc1=O
effect: -15.53

Some entries from above, unchanged:

- CNc1nccnc1C1CCN(C(C)C)CC1 : -21.98%
- O=C1CC[C@H]2CN(c3ncc(F)cn3)CC[C@H]2N1CCc1c[nH]cn1 : -33.53%

The values are deposited in ChEMBL (CHEMBL3988442, “University of Dundee, Small-Polar-MMV Screening Library” (2021)).